“And” between values parts separate entries of the source, which are not always exact repeats. Equal values may be shown once. In all, about 410,000 compounds went through this assay and about 18,000 (4.4%) were called active. Inconclusive means that the source gave no clear call. Such entries were picked first, then a sample of the others. No stated cut-off is given here; in the data, active means activity change below about -60%; inconclusive means no clear call, values can overlap the other calls; inactive means above about -39%.
assay: qHTS Assay for inhibitors of the human cytomegalovirus (HCMV); conditions: HFF cells, HCMV-luciferase reporter, 72 h; at 57.5 µM; active compounds read low
How it was run: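 Two compound doses tested in HFFs infected with HCMV-luciferase, MOI 1 PFU/cell, 72 h at 37C. Lysate luminescence read with OneGlo; data normalized against buffer-only and 10uM Salinomycin inhibitor controls.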
On the % scale 0 is the no-effect control and ±100 the full control effect.

Row | SMILES | activity change, negative = inhibition
1 | CCN1C(=O)S/C(=C/c2ccc(Oc3ccc([N+](=O)[O-])cn3)c(OC)c2)C1=O | inconclusive: -44.2%
2 | Cc1cccc(CN2C(=O)N/C(=C/c3ccc(C)s3)C2=O)c1 | inactive: 2.43%
3 | COc1ccc([N+](=O)[O-])cc1NC(=O)COC(=O)C1CC1 | inconclusive: -55.3%
4 | Cc1ccc(Cn2nnc3c(=O)n(CC(=O)NCc4ccccc4)cnc32)cc1 | inconclusive: -42.9%
5 | CN(Cc1nccn1C)C(=O)CC1C(=O)NCCN1Cc1ccc(F)cc1Cl (stereo not drawn) | inconclusive: -56.3%
6 | CCCOC(=O)c1c(N)sc(C(=O)OCC)c1C | inconclusive: -44.7%
7 | O=C(N/N=C1\CCc2ccccc21)c1ccncc1 | inactive: 48.2%
8 | COc1ccc(NC(=O)CN(C)C(=O)CSC(c2ccccc2)c2ccccc2)cc1 | inconclusive: -47.2%
9 | Cc1cccc(C(=O)c2c[nH]cc2-c2ccccc2)c1 | inconclusive: -47.7%
10 | COC(=O)c1cc(S(=O)(=O)NCCc2ccc(Cl)cc2)c[nH]1 | inconclusive: -57.4%
11 | O=C(c1cc(Cl)ccc1O)N1CCN(S(=O)(=O)Cc2ccccc2)CC1 | inconclusive: -50.4%
12 | Cc1ccc(Cl)cc1NC(=O)C(Cc1ccccc1)N1C(=O)C2C3CCC(C3)C2C1=O (stereo not drawn) | inconclusive: -50.3%
13 | CCCn1c(SCC(=O)N2CCCc3ccccc32)nnc1-c1ccco1 | inactive: -16.1%
14 | COc1ccc(C2=NN(C(=O)CSc3ncccn3)C(c3ccc(C)cc3)C2)cc1 (stereo not drawn) | inconclusive: -46.9%
15 | CCOc1ccc(NC(=O)CSc2nc3ccsc3c(=O)n2CCC(=O)O)cc1 | inconclusive: -42.9%
16 | COc1ccc(OC)c(CCNc2nc3ccccc3c3nc(-c4cccnc4)nn23)c1 | inactive: -5.86%
17 | CCc1ccccc1NC(=O)CSc1nnc2ccc3ccccc3n12 | inconclusive: -49.6%
18 | Cc1cccc(N2CCN(S(=O)(=O)c3cc(C(=O)Nc4ccccc4Cl)ccc3F)CC2)c1C | inconclusive: -58.9%
19 | O=C1CC(/C=C/c2ccccc2)=Nc2ccccc2N1 | inactive: -22.7%
20 | Cc1ccc2c(c1)=C(c1ccccc1)N(O)CC(=O)N=2 | inactive: -37.7%
21 | O=C(CNc1ccccc1)N/N=C/c1ccc([N+](=O)[O-])o1 | active: -81.7%
22 | CC(C)CNC(=O)Cn1c(=O)c2c(ncn2CC(C)C)n(Cc2ccccc2)c1=O | active: -66.9%
23 | COc1cc([N+](=O)[O-])ccc1NC(=O)CN1CCOCC1 | inconclusive: -45.2%
24 | COC(=O)C1C(O)=C(C=Nc2cccc3ccccc23)C(=O)CC1(C)C (stereo not drawn) | inactive: 103%
25 | CCOc1ccc(C(=O)c2cn(CC(=O)Nc3ccc(Cl)cc3)c3cc4c(cc3c2=O)OCCO4)cc1 | inactive: -7.57%
26 | Cc1ccc2nc(C)cc(Nc3ccc([N+](=O)[O-])cc3)c2c1 | inconclusive: -46.2%
27 | Cn1c(=O)cc(OCC(=O)NCCCN2CCN(c3ccccc3F)CC2)c2ccccc21 | inconclusive: -54.6%

12 of the compounds above, as tab-separated lines:
Row	SMILES	activity change, negative = inhibition
2	Cc1cccc(CN2C(=O)N/C(=C/c3ccc(C)s3)C2=O)c1	inactive: 2.43%
4	Cc1ccc(Cn2nnc3c(=O)n(CC(=O)NCc4ccccc4)cnc32)cc1	inconclusive: -42.9%
5	CN(Cc1nccn1C)C(=O)CC1C(=O)NCCN1Cc1ccc(F)cc1Cl (stereo not drawn)	inconclusive: -56.3%
6	CCCOC(=O)c1c(N)sc(C(=O)OCC)c1C	inconclusive: -44.7%
8	COc1ccc(NC(=O)CN(C)C(=O)CSC(c2ccccc2)c2ccccc2)cc1	inconclusive: -47.2%
10	COC(=O)c1cc(S(=O)(=O)NCCc2ccc(Cl)cc2)c[nH]1	inconclusive: -57.4%
11	O=C(c1cc(Cl)ccc1O)N1CCN(S(=O)(=O)Cc2ccccc2)CC1	inconclusive: -50.4%
16	COc1ccc(OC)c(CCNc2nc3ccccc3c3nc(-c4cccnc4)nn23)c1	inactive: -5.86%
21	O=C(CNc1ccccc1)N/N=C/c1ccc([N+](=O)[O-])o1	active: -81.7%
22	CC(C)CNC(=O)Cn1c(=O)c2c(ncn2CC(C)C)n(Cc2ccccc2)c1=O	active: -66.9%
23	COc1cc([N+](=O)[O-])ccc1NC(=O)CN1CCOCC1	inconclusive: -45.2%
27	Cn1c(=O)cc(OCC(=O)NCCCN2CCN(c3ccccc3F)CC2)c2ccccc21	inconclusive: -54.6%

Looked up above:
activity change, negative = inhibition with `COc1ccc(NC(=O)CN(C)C(=O)CSC(c2ccccc2)c2ccccc2)cc1` reads inconclusive: -47.2%
activity change, negative = inhibition with `O=C(CNc1ccccc1)N/N=C/c1ccc([N+](=O)[O-])o1` reads active: -81.7%

(continued)

Row | SMILES | activity change, negative = inhibition
28 | Cc1ccc(C)c(SCC(=O)NCC(c2ccco2)N2CCCCC2)c1 (stereo not drawn) | inconclusive: -48.4%
29 | CC(C)c1ccc(Nc2c([N+](=O)[O-])c(=O)n(C)c3ccccc23)cc1 | inconclusive: -48.4%
30 | NC(=S)C(c1ccccc1)c1ncc(C(F)(F)F)cc1Cl (stereo not drawn) | inconclusive: -58.9%
31 | Cn1c(=O)c2cc(S(=O)(=O)NC(C(=O)NC3CCCCC3)c3ccccc3)ccc2n(C)c1=O (stereo not drawn) | inactive: 13.3%
32 | COCC1CCN(C(=O)c2ccc3oc(C(C)C)nc3c2)C1 (stereo not drawn) | inconclusive: -57.5%
33 | COc1cccc(/C=N/n2c(N)c(S(=O)(=O)c3cccs3)c3nc4ccccc4nc32)c1 | active: -61.6%
34 | C=CCN=c1scc(-c2ccc3c(c2)NC(=O)CO3)n1/N=C(\C)c1ccccn1 | active: -95%
35 | CC1(OC(=O)C2CCCC2)C(=O)C=C2C=C(c3ccsc3)N(CCCCO)C=C2C1=O (stereo not drawn) | inconclusive: -58.8%
36 | Cc1cc(C)nc(-n2ncc3c2CC(c2ccccc2)CC3=O)n1 (stereo not drawn) | inconclusive: -46.8%
37 | Cn1c(=O)oc2cc(S(=O)(=O)N3CCC(C(=O)N4CCN(c5ccc(F)cc5)CC4)CC3)ccc21 | active: -61.2%
38 | CC1CCN(S(=O)(=O)c2ccc3c(ccn3CCC(=O)NC(C)C)c2)CC1 | inconclusive: -45%
39 | O=C(CSc1nc(Cc2ccccc2)nc2ccccc12)Nc1ccc2c(c1)OCCO2 | inconclusive: -40.9%
40 | CCCCN(C(=O)c1ccc2c(c1)OCO2)c1c(N)n(CC(C)C)c(=O)[nH]c1=O | inconclusive: -45.6%
41 | O=C(Nc1ccc(C(=O)N2CCCCC2)cc1)Nc1cccc(Cl)c1 | inactive: -34.5%
42 | COc1cc2c(=O)n(CCc3ccccc3)c(=O)n(CC(=O)Nc3ccccc3)c2cc1OC | inconclusive: -46.3%
43 | Cc1ccccc1N(C(=O)Cc1c[nH]c2ccccc12)C(C(=O)NC1CCCCC1)c1ccco1 (stereo not drawn) | inconclusive: -50.2%
44 | O=C(C1CCC1)N1CCc2cc(S(=O)(=O)NCc3ccc(F)cc3)ccc21 | inactive: 4.47%
45 | Cc1ccc(C(=O)O)cc1N1C(=O)c2cccc3c([N+](=O)[O-])ccc(c23)C1=O | active: -99.8%
46 | CC(=O)c1ccc(/C=C/c2nc3ccccc3n2C)o1 | inactive: 53.1%
47 | COc1ccc2cc(C=O)n(C)c2c1 | inactive: 11.4%
48 | c1ccc(-c2csc3ncnc(N4CCN(Cc5ccc6c(c5)OCO6)CC4)c23)cc1 | inconclusive: -53.7%
49 | COc1ccc(OC)c(NC(=O)c2cnn(-c3ccc(C)cc3)c2C2CCNCC2)c1 | inactive: -17.2%
50 | CCc1ccccc1N(C)C(=O)c1cc2c(=O)oc3ccccc3c2s1 | inactive: -8.67%
51 | O=C(CCCCCCCC(=O)c1ccccc1)c1ccccc1 | inconclusive: -46.1%
52 | C[C@H]1CCCCO[C@H](CN(C)C(=O)C2CCCCC2)[C@@H](C)CN([C@@H](C)CO)C(=O)c2cc(NC(=O)NC3CCCCC3)ccc2O1 | inactive: 21.1%
53 | COc1cc(NC(=O)c2cc(S(=O)(=O)N3CCc4ccccc43)cn2C)cc(OC)c1OC | inactive: 235% and inactive: 34.8%
